Values quoted from earlier work in patent US20160346356A1, “USE OF RNA INTERFERENCE, FARNESOIC ACID AND RECOMBINANT PROTEIN APPROACH TO INDUCE GONAD MATURATION IN CRUSTACEAN SPECIES” (priority 2013, published 2016).
Some of these results come from one statement about several compounds together. At least one structure is not confirmed: it was looked up by name or label, or the drawing left a doubt.

System: HaVg1 gene expression
Conditions: hepatopancreas explant; cited from earlier work

## CC(C)(O)CC[C@@H](O)[C@](C)(O)[C@H]1CC[C@@]2(O)C3=CC(=O)[C@@H]4C[C@@H](O)[C@@H](O)C[C@]4(C)[C@H]3CC[C@]12C [20E, 20-hydroxyecdysone]
  time during which stimulatory effect on HaVg1 expression was principally observed: ≤ 90 min
